Experimental data: article PMC9675819
These are yes or no findings as the source states them, for the method shown. Binding seen in cells or lysates may run through a third protein. Some entries that bind do so weakly or less than the wild type. For some of these results: Tags and fused reporters may be left off the sequences shown.

Amino acid sequences for entries named in this document (tags omitted).
UniProt Q7Z434: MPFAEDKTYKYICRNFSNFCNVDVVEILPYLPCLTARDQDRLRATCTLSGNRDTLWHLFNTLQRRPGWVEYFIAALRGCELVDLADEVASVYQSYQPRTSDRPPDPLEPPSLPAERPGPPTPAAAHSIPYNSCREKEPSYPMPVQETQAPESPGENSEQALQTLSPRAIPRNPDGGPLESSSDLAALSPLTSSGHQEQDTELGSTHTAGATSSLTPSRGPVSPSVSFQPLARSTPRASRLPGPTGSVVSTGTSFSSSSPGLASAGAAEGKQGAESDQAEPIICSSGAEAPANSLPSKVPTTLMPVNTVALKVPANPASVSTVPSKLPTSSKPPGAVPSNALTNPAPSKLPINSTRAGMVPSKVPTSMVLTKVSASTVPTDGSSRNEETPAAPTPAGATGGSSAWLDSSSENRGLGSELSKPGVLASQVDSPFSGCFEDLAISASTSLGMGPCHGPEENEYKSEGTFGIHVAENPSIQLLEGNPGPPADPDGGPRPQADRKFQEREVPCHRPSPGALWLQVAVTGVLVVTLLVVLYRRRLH
UniProt O00463: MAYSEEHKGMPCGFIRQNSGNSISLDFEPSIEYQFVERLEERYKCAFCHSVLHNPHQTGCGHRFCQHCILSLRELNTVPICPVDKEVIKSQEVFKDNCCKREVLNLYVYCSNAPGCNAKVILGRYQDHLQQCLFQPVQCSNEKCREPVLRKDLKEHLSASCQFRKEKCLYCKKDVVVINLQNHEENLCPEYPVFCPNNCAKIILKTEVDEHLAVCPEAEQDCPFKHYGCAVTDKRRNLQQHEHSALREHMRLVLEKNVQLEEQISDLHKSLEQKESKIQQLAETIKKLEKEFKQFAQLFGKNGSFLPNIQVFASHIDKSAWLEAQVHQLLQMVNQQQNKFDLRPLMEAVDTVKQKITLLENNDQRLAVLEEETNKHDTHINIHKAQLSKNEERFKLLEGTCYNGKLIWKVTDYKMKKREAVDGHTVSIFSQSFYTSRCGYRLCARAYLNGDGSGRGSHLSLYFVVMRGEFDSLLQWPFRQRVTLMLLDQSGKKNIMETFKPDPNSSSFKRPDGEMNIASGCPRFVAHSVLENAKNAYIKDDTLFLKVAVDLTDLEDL
UniProt O00571: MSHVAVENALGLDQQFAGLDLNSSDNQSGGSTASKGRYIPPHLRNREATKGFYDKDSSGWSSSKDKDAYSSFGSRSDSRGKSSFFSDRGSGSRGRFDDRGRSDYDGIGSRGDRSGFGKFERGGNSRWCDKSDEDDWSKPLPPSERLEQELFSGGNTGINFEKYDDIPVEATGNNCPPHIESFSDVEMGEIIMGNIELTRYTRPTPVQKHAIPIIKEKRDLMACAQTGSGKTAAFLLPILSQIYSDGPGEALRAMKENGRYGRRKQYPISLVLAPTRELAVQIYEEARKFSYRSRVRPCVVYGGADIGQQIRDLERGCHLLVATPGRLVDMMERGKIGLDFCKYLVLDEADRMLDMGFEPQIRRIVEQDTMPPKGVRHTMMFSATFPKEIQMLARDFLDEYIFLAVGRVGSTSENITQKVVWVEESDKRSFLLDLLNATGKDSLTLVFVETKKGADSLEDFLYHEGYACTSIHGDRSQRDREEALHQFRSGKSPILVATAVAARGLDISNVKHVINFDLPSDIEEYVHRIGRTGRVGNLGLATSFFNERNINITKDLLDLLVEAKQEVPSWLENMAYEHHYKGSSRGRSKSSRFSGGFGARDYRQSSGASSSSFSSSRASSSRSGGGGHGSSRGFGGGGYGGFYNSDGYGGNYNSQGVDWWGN

How the values were obtained:
Assay in all cases: co-IP; HEK293T co-transfected with FLAG tagged proteins and DDX3X-GFP with or without murine circRIG-I; lysis buffer 10% glycerol, 0.5% NP-40, 150 mM NaCl, 0.1 mM EDTA; immunoprecipitated with FLAG antibody and protein A/G agarose beads, blotted with anti-GFP
[1] = biological target: FLAG tagged MAVS (UniProt Q7Z434)
[2] = biological target: T1, FLAG tagged TBK1 (UniProt Q9UHD2)
T1 sequence: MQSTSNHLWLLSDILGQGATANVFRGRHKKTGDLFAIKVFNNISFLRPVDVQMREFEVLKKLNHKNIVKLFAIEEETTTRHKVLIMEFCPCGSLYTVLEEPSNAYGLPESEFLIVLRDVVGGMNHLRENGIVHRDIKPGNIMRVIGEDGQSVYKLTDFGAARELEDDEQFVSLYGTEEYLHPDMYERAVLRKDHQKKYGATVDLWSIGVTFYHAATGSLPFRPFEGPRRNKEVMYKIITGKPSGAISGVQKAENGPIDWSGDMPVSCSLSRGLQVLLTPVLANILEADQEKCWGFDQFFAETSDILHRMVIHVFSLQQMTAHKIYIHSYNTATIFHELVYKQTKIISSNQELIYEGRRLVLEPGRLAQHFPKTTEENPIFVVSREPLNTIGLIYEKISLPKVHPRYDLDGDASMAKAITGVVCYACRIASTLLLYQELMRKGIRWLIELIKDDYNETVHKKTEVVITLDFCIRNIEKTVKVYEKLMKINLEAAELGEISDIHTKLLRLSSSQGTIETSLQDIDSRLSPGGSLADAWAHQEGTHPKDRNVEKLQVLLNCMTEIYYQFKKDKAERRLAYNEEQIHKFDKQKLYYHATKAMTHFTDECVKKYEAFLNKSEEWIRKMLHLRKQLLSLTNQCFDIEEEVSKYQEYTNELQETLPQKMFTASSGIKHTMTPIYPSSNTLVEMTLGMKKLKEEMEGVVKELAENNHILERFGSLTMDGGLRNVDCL

[3] = biological target: T2, FLAG tagged TRAF4 (UniProt Q9BUZ4)
T2 sequence: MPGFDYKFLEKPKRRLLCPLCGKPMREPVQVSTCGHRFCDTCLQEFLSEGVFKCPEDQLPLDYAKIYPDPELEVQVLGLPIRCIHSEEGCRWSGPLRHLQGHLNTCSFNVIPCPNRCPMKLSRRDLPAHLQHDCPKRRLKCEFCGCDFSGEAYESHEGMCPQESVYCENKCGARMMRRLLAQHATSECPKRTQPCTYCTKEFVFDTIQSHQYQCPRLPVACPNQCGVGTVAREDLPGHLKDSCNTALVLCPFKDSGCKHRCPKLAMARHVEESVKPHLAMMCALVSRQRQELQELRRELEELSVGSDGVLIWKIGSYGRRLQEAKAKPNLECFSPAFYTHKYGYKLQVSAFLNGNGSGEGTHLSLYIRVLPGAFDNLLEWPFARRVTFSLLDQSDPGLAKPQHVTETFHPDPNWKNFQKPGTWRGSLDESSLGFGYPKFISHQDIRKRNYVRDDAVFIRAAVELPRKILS

[4] = biological target: FLAG tagged TRAF5 (UniProt O00463)

Measured: binding

DDX3X-GFP (from UniProt O00571 1-662)
binds: all assays above
